Data taken from article PMC6764986.
No constants are given. Whether binding was seen depends on the method and setting. Binding seen in cells or lysates may run through a third protein. Some results given as binding are weak or reduced against the parent protein; the word gives no strength. Tags and fused reporters may be left off the sequences shown.

Biological target: T1, YfgM-ALFA (C-terminally ALFA-tagged YfgM) (E. coli) (UniProt P76576)
T1 sequence: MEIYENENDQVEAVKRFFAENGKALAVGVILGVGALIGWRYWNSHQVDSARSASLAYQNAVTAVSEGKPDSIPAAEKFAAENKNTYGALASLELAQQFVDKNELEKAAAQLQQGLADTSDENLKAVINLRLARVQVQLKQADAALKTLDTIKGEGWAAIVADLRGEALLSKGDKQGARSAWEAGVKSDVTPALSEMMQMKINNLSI
Assay: co-IP; DDM-solubilized lysate of E. coli ΔyfgM expressing YfgM-ALFA, captured on ALFA Selector^PE, washed in PBS with 0.3% DDM, eluted with 200 µM ALFA peptide; Western blot with serum against the YfgM-PpiD complex

B1: PpiD (protein, UniProt P0ADY1 1-623)
chain: MMDSLRTAANSLVLKIIFGIIIVSFILTGVSGYLIGGGNNYAAKVNDQEISRGQFENAFNSERNRMQQQLGDQYSELAANEGYMKTLRQQVLNRLIDEALLDQYARELKLGISDEQVKQAIFATPAFQVDGKFDNSRYNGILNQMGMTADQYAQALRNQLTTQQLINGVAGTDFMLKGETDELAALVAQQRVVREATIDVNALAAKQPVTEQEIASYYEQNKNNFMTPEQFRVSYIKLDAATMQQPVSDADIQSYYDQHQDQFTQPQRTRYSIIQTKTEDEAKAVLDELNKGGDFAALAKEKSADIISARNGGDMGWLEDATIPDELKNAGLKEKGQLSGVIKSSVGFLIVRLDDIQPAKVKSLDEVRDDIAAKVKHEKALDAYYALQQKVSDAASNDTESLAGAEQAAGVKATQTGWFSKDNLPEELNFKPVADAIFNGGLVGENGAPGINSDIITVDGDRAFVLRISEHKPEAVKPLADVQEQVKALVQHNKAEQQAKVDAEKLLVDLKAGKGAEAMQAAGLKFGEPKTLSRSGRDPISQAAFALPLPAKDKPSYGMATDMQGNVVLLALDEVKQGSMPEDQKKAMVQGITQNNAQIVFEALMSNLRKEAKIKIGDALEQQ
Which binding does the source give for B1 here?
Its binding is “binds”.
